No constants are given. Whether binding was seen depends on the method and setting. Some entries that bind do so weakly or less than the wild type.
Target: T1, KELCH-repeat region of AtFKF1 (amino acids 284 to 619) (Arabidopsis thaliana) (UniProt Q9C9W9)
T1 sequence: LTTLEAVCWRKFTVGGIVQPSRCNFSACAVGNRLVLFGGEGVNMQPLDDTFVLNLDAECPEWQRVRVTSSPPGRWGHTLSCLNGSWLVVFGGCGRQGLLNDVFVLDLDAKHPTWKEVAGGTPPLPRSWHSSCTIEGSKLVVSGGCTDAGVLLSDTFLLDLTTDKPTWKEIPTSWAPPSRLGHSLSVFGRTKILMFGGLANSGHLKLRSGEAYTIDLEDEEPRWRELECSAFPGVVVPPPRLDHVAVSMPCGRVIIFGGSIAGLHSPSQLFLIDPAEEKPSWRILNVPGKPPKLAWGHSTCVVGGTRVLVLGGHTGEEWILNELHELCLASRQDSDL
Assay: two-hybrid; prey in pDEST22 (AD) in yeast PJ69-4A mated with bait in pDEST32 (BD) in PJ69-4α; diploids plated on SD -Trp -Leu -His with 0, 1, 2, 10, 25, 50 and 100 mM 3-AT; colonies over 11 days at 28°C; two independent clones

binding: binds
B1: AtCDF1 (protein, UniProt Q8W1E3 1-298)
chain: MLETKDPAIKLFGMKIPFPTVLEVADEEEEKNQNKTLTDQSEKDKTLKKPTKILPCPRCNSMETKFCYYNNYNVNQPRHFCKACQRYWTSGGTMRSVPIGAGRRKNKNNSPTSHYHHVTISETNGPVLSFSLGDDQKVSSNRFGNQKLVARIENNDERSNNNTSNGLNCFPGVSWPYTWNPAFYPVYPYWSMPVLSSPVSSSPTSTLGKHSRDEDETVKQKQRNGSVLVPKTLRIDDPNEAAKSSIWTTLGIKNEVMFNGFGSKKEVKLSNKEETETSLVLCANPAALSRSINFHEQM

From publication PMC6761483
